Measured data: PubChem BioAssay AID1259254 (NCATS, 2017)
Aim: 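Genome-wide screen for genes that prevent DNA re-replication in cancer cells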 (primary screen). System: human HCT116 colorectal cancer cells. Reagents: single siRNA against human genes. Duration: 3 days. Measured: 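Imaged Hoechst DNA stain sorts each cell into a cycle phase by DNA amount; per plate, G2 fraction set to 0% for non-targeting and 100% for GMNN siRNA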. Reading the numbers: G2 robust z-score and G2 cells, % of GMNN control: higher = more G2 cells, more excess DNA replication; raw share of cells in G2: higher = larger share of cells with G2 DNA content. Active means: 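Active siRNAs have a G2 robust z of 5 or more median absolute deviations over the median, which in these data means about 38% or higher of GMNN control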.
Here is one part, drawn at random, of about 59,000 reagents. About 1,550 of them (2.6%) count as active. 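G2 share is only a proxy for re-replication; each gene was hit by three separate siRNAs, and active genes were retested.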 The raw values are shown without normalisation. The numbers tell different reagents against one gene apart. Reagent sequences are not shown. The record does not give: the amount of reagent.

target | siRNA no. | G2 robust z-score | G2 cells, % of GMNN control | raw share of cells in G2 (%) | call
SHC3 (GeneID 53358) | 1 | -0.58 | -1.11 | 3.2 | inactive
SHC3 (GeneID 53358) | 2 | -0.752 | -2.32 | 3.29 | inactive
SHC3 (GeneID 53358) | 3 | -0.187 | 1.65 | 3.74 | inactive
CEP135 (GeneID 9662) | 1 | -0.73 | -2.17 | 4.38 | inactive
CEP135 (GeneID 9662) | 2 | 0.894 | 9.26 | 8.51 | inactive
CEP135 (GeneID 9662) | 3 | 0.105 | 3.71 | 4.46 | inactive
TMCO2 (GeneID 127391) | 1 | -1.11 | -4.88 | 2.34 | inactive
TMCO2 (GeneID 127391) | 2 | -0.0894 | 2.34 | 3.84 | inactive
TMCO2 (GeneID 127391) | 3 | -0.204 | 1.53 | 3.14 | inactive
C1QBP (GeneID 708) | 1 | -0.469 | -0.33 | 3.33 | inactive
C1QBP (GeneID 708) | 2 | -0.0301 | 2.76 | 6.14 | inactive
C1QBP (GeneID 708) | 3 | -1 | -4.09 | 1.62 | inactive
GLIPR1L1 (GeneID 256710) | 1 | 1.08 | 10.6 | 7.41 | inactive
GLIPR1L1 (GeneID 256710) | 2 | 0.501 | 6.49 | 5.35 | inactive
GLIPR1L1 (GeneID 256710) | 3 | 0.494 | 6.44 | 5.25 | inactive
RDH8 (GeneID 50700) | 1 | -0.735 | -2.2 | 2.96 | inactive
RDH8 (GeneID 50700) | 2 | 4.05 | 31.5 | 20.2 | inactive
RDH8 (GeneID 50700) | 3 | -0.892 | -3.31 | 3.02 | inactive
TEKT5 (GeneID 146279) | 1 | 0.906 | 9.34 | 6.96 | inactive
TEKT5 (GeneID 146279) | 2 | -0.728 | -2.15 | 2.25 | inactive
TEKT5 (GeneID 146279) | 3 | -0.796 | -2.63 | 2.15 | inactive
SLC16A11 (GeneID 162515) | 1 | -0.0129 | 2.88 | 5.91 | inactive
SLC16A11 (GeneID 162515) | 2 | -1.33 | -6.41 | 2.9 | inactive
SLC16A11 (GeneID 162515) | 3 | 0.988 | 9.92 | 8.33 | inactive

Reformatted: entries from further up
target,siRNA no.,G2 robust z-score,"G2 cells, % of GMNN control",raw share of cells in G2 (%),call
GLIPR1L1 (GeneID 256710),2,0.501,6.49,5.35,inactive
GLIPR1L1 (GeneID 256710),3,0.494,6.44,5.25,inactive
RDH8 (GeneID 50700),1,-0.735,-2.2,2.96,inactive
RDH8 (GeneID 50700),2,4.05,31.5,20.2,inactive
RDH8 (GeneID 50700),3,-0.892,-3.31,3.02,inactive

The results go on.
target | siRNA no. | G2 robust z-score | G2 cells, % of GMNN control | raw share of cells in G2 (%) | call
GRPEL1P1 (GeneID 729126) | 1 | 2.17 | 18.2 | 10.9 | inactive
GRPEL1P1 (GeneID 729126) | 2 | 0.685 | 7.79 | 5.83 | inactive
GRPEL1P1 (GeneID 729126) | 3 | -0.5 | -0.551 | 2.89 | inactive
YTHDF1 (GeneID 54915) | 1 | 0.338 | 5.35 | 5.52 | inactive
YTHDF1 (GeneID 54915) | 2 | 0.581 | 7.06 | 7.24 | inactive
YTHDF1 (GeneID 54915) | 3 | 0.318 | 5.2 | 4.91 | inactive
GALNT1 (GeneID 2589) | 1 | -0.743 | -2.26 | 4.42 | inactive
GALNT1 (GeneID 2589) | 2 | 1.53 | 13.7 | 10.5 | inactive
GALNT1 (GeneID 2589) | 3 | 0.254 | 4.76 | 5.35 | inactive
ADM (GeneID 133) | 1 | -1.32 | -6.34 | 2.56 | inactive
ADM (GeneID 133) | 2 | -1.36 | -6.58 | 2.73 | inactive
ADM (GeneID 133) | 3 | -0.92 | -3.5 | 2.69 | inactive
GRM3 (GeneID 2913) | 1 | -0.388 | 0.237 | 5.93 | inactive
GRM3 (GeneID 2913) | 2 | 2.28 | 19 | 11.2 | inactive
GRM3 (GeneID 2913) | 3 | 2.39 | 19.8 | 9.34 | inactive
DERL3 (GeneID 91319) | 1 | 0.772 | 8.4 | 9.57 | inactive
DERL3 (GeneID 91319) | 2 | 6.23 | 46.8 | 25.1 | active
DERL3 (GeneID 91319) | 3 | 0.358 | 5.49 | 6.55 | inactive
LOC100420746 (GeneID 100420746) | 1 | 0.896 | 9.27 | 7.48 | inactive
LOC100420746 (GeneID 100420746) | 2 | 1.64 | 14.5 | 8 | inactive
LOC100420746 (GeneID 100420746) | 3 | -0.144 | 1.95 | 3.87 | inactive
SLIT3-AS1 (GeneID 728095) | 1 | 0.773 | 8.41 | 6.73 | inactive
SLIT3-AS1 (GeneID 728095) | 2 | -0.04 | 2.69 | 3.82 | inactive
SLIT3-AS1 (GeneID 728095) | 3 | -1.07 | -4.56 | 1.87 | inactive
